These are yes or no findings as the source states them, for the method shown. In cells and extracts the contact can be indirect. Some entries that bind do so weakly or less than the wild type. Tags and fused reporters may be left off the sequences shown.
Biological target: T1, endogenous TRAF6 of RAW 264.7 cells (mouse (endogenous in RAW 264.7)) (UniProt P70196)
T1 sequence: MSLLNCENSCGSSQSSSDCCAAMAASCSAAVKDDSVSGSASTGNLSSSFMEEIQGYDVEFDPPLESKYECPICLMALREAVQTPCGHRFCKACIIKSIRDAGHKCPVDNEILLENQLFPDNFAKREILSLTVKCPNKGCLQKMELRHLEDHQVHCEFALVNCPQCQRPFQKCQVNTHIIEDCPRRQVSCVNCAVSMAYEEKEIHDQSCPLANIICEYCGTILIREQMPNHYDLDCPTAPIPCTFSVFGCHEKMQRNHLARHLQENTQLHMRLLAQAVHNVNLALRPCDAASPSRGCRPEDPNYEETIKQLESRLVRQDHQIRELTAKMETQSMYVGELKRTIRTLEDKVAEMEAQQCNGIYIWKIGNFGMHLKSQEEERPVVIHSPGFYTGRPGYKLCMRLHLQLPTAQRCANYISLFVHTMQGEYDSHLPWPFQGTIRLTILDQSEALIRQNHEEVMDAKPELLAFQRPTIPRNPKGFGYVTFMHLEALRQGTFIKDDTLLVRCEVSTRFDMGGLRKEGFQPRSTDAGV
Assay: co-IP; IP of endogenous TRAF6 with anti-TRAF6 from RAW 264.7 cells transduced with the PEP-NASP or NASP, without or with LPS stimulation; immunoblot with anti-His, anti-NASP or anti-TRAF6

binding: binds
B1: His-PEP-NASP (sNASP residues 1 ~ 31 fused with PEP-1) (peptide)
chain: KETWWETWWTEWSQPKKKRKVMAMESTATAAVAAELVSADKIEDVPAPSTSA

— paper PMC8977741
